Assay results from PMC7810883, “Phosphorylation-induced changes in the PDZ domain of Dishevelled 3” (Scientific Reports, 2021).
No constants are given. Whether binding was seen depends on the method and setting. Some binding calls cover weakened binding; strength is not graded here.

T1: PDZ domain of human Dishevelled 3 (DVL3), aa 243-338, S263E (human) (UniProt Q92997)
T1 sequence: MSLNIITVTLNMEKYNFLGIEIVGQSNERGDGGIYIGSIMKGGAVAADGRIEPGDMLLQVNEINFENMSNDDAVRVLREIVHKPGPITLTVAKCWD


How the values were obtained:
[1] = molecular target: PDZ domain of human Dishevelled 3 (DVL3), aa 243-338, wild type (human) (UniProt Q92997); assay: AUC; sedimentation velocity, 60000 rpm, 20 C, 25 uM and 100 uM PDZ wt, phosphate pH 6.5, 50 mM KCl; both purified
[2] = molecular target: T1, PDZ domain of human Dishevelled 3 (DVL3), aa 243-338, S263E (human); assay: NMR titration; 1H-15N HSQC of 100 uM 15N-labelled PDZ wt/mutant with increasing amounts of C-terminal peptide (stock 800 uM, up to four-fold over PDZ); 50 mM sodium-phosphate pH 6.5, 50 mM KCl; both purified

binding [1] | binding [2] | Binder
no binding (tested: 25 and 100 uM) |  | PDZ domain of human Dishevelled 3 (DVL3), aa 243-338, wild type (domain or fragment, UniProt Q92997 243-338) MSLNIITVTLNMEKYNFLGISIVGQSNERGDGGIYIGSIMKGGAVAADGRIEPGDMLLQVNEINFENMSNDDAVRVLREIVHKPGPITLTVAKCWD
 | binds weakly | RQSFRMAMGNPSEFFVDVM (peptide, UniProt Q92997 698-716, phosphoserine at 700 (pS700); uncapped) [C-terminal DVL peptide consisting of aa 698-716 from DVL3 with phosphorylated pS700]
